Reference: paper PMC11358013
No constants are given. Whether binding was seen depends on the method and setting. Some entries that bind do so weakly or less than the wild type. Where a sequence is shown, tags or fusion partners need not be part of it.

Amino acid sequences for entries named in this document (tags omitted).
UniProt Q68Y81: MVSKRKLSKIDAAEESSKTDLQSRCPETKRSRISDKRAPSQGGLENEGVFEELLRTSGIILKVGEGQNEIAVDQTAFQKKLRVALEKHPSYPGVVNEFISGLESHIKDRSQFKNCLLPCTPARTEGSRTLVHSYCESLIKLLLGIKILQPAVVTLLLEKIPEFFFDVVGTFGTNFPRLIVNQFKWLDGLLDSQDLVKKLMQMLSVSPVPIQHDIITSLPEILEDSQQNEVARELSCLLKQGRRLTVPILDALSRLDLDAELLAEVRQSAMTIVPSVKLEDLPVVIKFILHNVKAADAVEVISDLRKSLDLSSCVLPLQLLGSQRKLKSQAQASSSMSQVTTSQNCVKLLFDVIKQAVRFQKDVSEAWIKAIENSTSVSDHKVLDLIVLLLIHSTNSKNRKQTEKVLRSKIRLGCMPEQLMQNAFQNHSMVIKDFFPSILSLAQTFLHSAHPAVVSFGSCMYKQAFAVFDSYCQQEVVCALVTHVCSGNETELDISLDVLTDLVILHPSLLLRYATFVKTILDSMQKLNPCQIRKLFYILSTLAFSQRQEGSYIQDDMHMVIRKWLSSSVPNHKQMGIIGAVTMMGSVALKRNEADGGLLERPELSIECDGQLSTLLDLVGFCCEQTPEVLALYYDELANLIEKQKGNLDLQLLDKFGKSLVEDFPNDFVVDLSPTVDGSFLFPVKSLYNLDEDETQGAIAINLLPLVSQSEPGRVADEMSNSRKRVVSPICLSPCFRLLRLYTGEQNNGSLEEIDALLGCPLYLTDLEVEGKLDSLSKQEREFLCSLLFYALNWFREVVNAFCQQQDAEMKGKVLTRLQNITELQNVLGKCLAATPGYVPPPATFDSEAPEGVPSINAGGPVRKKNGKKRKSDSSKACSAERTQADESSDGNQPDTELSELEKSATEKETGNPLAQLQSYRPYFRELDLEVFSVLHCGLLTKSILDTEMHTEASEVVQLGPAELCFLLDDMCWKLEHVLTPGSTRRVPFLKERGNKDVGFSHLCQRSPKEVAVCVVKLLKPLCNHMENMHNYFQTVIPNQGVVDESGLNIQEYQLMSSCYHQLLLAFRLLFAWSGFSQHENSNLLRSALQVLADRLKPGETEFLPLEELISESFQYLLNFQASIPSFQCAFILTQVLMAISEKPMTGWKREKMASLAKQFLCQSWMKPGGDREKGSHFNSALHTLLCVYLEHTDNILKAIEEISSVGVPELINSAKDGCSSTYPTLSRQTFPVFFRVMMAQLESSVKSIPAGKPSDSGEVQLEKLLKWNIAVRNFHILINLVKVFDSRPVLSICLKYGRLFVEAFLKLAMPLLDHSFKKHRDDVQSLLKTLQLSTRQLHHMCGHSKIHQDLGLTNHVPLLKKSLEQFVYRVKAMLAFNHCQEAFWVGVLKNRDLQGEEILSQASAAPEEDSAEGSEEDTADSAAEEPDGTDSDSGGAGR

Assays:
[1] = biological target: T1, Gallus gallus FANCI (untagged, from the co-expressed D2–I complex) (Gallus gallus) (UniProt B0I564); test: cryo-EM structure; chicken D2–I with 44 bp linear dsDNA (oligos P1 and P7); same grid preparation as for ss–dsDNA; 20 mM HEPES pH 7.5, 75 mM NaCl, 1 mM TCEP; both purified
T1 sequence: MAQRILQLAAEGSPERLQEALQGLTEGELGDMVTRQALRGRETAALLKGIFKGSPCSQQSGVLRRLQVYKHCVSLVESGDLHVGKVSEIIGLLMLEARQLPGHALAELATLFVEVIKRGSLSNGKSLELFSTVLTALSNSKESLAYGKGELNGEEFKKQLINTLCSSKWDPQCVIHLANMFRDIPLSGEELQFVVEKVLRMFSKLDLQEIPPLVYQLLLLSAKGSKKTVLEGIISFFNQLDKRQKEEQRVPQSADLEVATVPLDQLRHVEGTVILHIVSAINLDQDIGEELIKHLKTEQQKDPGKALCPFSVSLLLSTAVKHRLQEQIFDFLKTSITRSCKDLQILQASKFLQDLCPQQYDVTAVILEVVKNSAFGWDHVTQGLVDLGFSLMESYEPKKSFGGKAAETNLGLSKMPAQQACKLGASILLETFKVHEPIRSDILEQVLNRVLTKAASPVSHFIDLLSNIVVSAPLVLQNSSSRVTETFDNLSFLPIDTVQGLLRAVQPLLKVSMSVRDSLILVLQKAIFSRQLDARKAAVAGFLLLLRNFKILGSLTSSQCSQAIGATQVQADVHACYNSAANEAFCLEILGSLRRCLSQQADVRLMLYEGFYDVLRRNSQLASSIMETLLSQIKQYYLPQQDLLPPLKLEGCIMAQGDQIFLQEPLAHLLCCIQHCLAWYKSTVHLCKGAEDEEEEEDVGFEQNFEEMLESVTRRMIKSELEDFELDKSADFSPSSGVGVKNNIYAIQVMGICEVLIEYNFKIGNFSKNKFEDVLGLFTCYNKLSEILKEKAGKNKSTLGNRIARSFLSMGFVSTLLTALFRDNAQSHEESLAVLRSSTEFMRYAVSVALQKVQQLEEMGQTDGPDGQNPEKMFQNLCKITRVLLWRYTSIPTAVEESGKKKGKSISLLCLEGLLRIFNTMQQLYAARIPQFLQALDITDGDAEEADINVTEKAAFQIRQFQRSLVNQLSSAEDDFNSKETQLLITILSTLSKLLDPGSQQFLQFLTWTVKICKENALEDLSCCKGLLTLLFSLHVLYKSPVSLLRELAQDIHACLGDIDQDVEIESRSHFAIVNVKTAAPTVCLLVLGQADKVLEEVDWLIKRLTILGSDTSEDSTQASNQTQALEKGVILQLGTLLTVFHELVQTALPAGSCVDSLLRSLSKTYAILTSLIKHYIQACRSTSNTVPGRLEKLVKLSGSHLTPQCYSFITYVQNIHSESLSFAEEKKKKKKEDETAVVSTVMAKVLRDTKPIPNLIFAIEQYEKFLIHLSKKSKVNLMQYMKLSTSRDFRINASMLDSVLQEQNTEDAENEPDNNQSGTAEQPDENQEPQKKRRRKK

[2] = biological target: T1, Gallus gallus FANCI (untagged, from the co-expressed D2–I complex) (Gallus gallus); test: cryo-EM structure; 1 µM chicken D2–I with 3 µM ss–dsDNA (29 bp duplex flanked by 30 nt and 40 nt overhangs); 20 mM HEPES pH 7.5, 75 mM NaCl, 1 mM TCEP, 15 min at 22 °C; both purified

Gallus gallus FANCD2 (untagged, from the co-expressed D2–I complex) (from UniProt Q68Y81 1-1439)
binding [1]: binds | binding [2]: binds
